# Values from PubChem BioAssay AID504786 (Drosophila RNAi Screening Center, 2011).
# Test: 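Positive regulators of HIF-driven reporter output in Drosophila cells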 (primary screen)
# Cells: Drosophila S2 cells with a stable HIF luciferase reporter
# Reagents: long dsRNA against Drosophila genes, about 0.2 µg dsRNA per well of a 384-well plate
# Time to read-out: three days of knock-down, then 20 h of DFO before reading
# Challenge: desferrioxamine (DFO) at 100 µM, an iron chelator that mimics hypoxia, for 20 h
# Measured: 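Firefly luciferase driven by the mouse ldh-a hypoxia-response element, measured after 20 h of 100 µM DFO; z-scores per plate, higher means more signal lost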
# Direction: z-score: higher = stronger loss of HIF reporter signal
# The deposit covers about 21,000 reagents; shown is an unselected part of those that have a named target and a result. 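Primary screen; positive scores mean lost reporter signal, so the sign may be inverted from the usual convention.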 Names joined by + are all predicted targets of the reagent. Further read-outs or replicates are left out here.
Target gene,dsRNA,"z-score, replicate 1"
CG12129,DRSC06105,-0.3
Spps (Sp1-like factor for pairing sensitive-silencing),DRSC15856,-0.3
CG15296,DRSC17983,-0.2
fj (four-jointed),DRSC07619,-0.4
CG18404,DRSC15323,-0.5
Kcmf1 (Potassium channel modulatory factor 1),DRSC14459,-0.1
Gycalpha99B (Guanylyl cyclase alpha-subunit at 99B),DRSC16690,-0.3
CG14439,DRSC17931,-0.3
p130CAS,DRSC07862,-0.2
p130CAS,DRSC08257,4.9
Ror,DRSC03414,-0.2
Ced-12,DRSC02840,-0.2
CG43894,DRSC10123,0.5
Dmtn (Dementin),DRSC12513,-0.1
CG42354 + CG42353,DRSC20172,0.1
CG42758,DRSC10021,-0.3
sloth2 + sloth1,DRSC17922,-0.2
sloth2 + sloth1,DRSC17923,-0.3
eIF6 (eukaryotic translation initiation factor 6),DRSC04674,-0.2
HDAC11 (Histone deacetylase 11),DRSC14280,0
CG14507,DRSC14859,-0.3
Acyp (Acylphosphatase),DRSC01861,0
CG32645,DRSC19683,0.1
CG32645,DRSC19889,-0.2
CG32091,DRSC10141,-0.3
CG32091,DRSC10820,-0.2
CG4424,DRSC15576,-0.2
mbl (muscleblind),DRSC05657,-1.5
mbl (muscleblind),DRSC06449,-0.1
mbl (muscleblind),DRSC07651,2.9
klu (klumpfuss),DRSC11357,-0.5
CG15356,DRSC00386,0.4
CG43658,DRSC20111,-0.3
CG14187,DRSC10186,-0.4

Single entries from the entries so far:
For “z-score, replicate 1”, Acyp (Acylphosphatase) [DRSC01861] has 0
For “z-score, replicate 1”, mbl (muscleblind) [DRSC07651] reads 2.9
